These results are taken from PubChem BioAssay AID224 (DTP/NCI, 2004).

Molecules are shown by their SMILES. The list does not hold the whole screen: it gathers tests that were run many times, whatever their T/C, doses with no T/C, and many T/C values between a quarter and a half above the control. Further doses and runs are listed elsewhere. T/C: endpoint of the treated group in % of that of the vehicle group. Some doses have a count of surviving animals in place of a T/C: the source holds a T/C of zero for them, seemingly a mark for toxic or unscored doses. Some doses without a T/C left all or most animals alive at the check, yet need not have been tolerated: the source hardly ever lists a survival T/C far under the control, and the zero likely stands for such cases as well. Survivors were counted at the toxicity check, usually on the fifth day, unless a day is given; later deaths do not show. Schedule codes are those of the source, read here as Q, the interval in days (D) or hours (H), X, the number of doses. Some schedule codes hold Z or #, which are not explained here. Some entries hold several experiments; the values are given in rising order. Where survival is the endpoint, the PubChem record calls one and a half times the control and up active, and a quarter to a half above the control has no call in these data; cut-offs in other NCI protocols can differ.

For this test, the system named is P335 leukemia ip, BDF1 mice, survival T/C %. The test can be described thus: NCI In Vivo Anticancer Drug Screen. Data for tumor model P335 Leukemia (intraperitoneal) in B6D2F1 (BDF1) mice. The conditions noted are these: T/C endpoint: mean survival time, schedule: Q01DX Z (ip), higher T/C = longer survival. On the procedure:
The antitumor activity of compounds was measured in mice bearing transplantable tumors. Survival or tumor size were measured and the results are expressed as the measurement made in the treated group (T) divided by the measurement made in the vehicle treated control group (C). The tumor model used in this assay is P335 Leukemia (intraperitoneal) in B6D2F1 (BDF1) mice

Where [1] appears, read: dose: 200.0 mg/kg/injection, vehicle: methylcellulose (MC).
Setting [2] is: dose: 0.25 mg/kg/injection, vehicle: saline.
Setting [3] is: dose: 0.5 mg/kg/injection, vehicle: saline.
[4] abbreviates: dose: 1.0 mg/kg/injection, vehicle: saline.
The mark [5] stands for this setting: dose: 2.0 mg/kg/injection, vehicle: saline.
The mark [6] stands for this setting: dose: 2.5 mg/kg/injection, vehicle: carboxymethylcellulose (CMC).
Setting [7] is: dose: 0.12 mg/kg/injection, vehicle: carboxymethylcellulose (CMC).
Setting [8] is: dose: 25.0 mg/kg/injection, vehicle: carboxymethylcellulose (CMC).
The mark [9] stands for this setting: dose: 50.0 mg/kg/injection, vehicle: carboxymethylcellulose (CMC).
The mark [10] stands for this setting: dose: 6.25 mg/kg/injection, vehicle: carboxymethylcellulose (CMC).

For `CCN(CC)CCNc1ccc(C)c2sc3ccccc3c(=O)c12`, the survivor count is on record as 6 of 6 (dose: 50.0 mg/kg/injection, vehicle: methylcellulose (MC)) and 0 of 6 under setting [1].

Consider `OCC1OC(n2cnc3c(=S)nc[nH]c32)C(O)C1O` (centres undefined), for which the survivor count was 6 of 6 (dose: 250.0 mg/kg/injection, vehicle: carboxymethylcellulose (CMC)) and 6 of 6 (dose: 500.0 mg/kg/injection, vehicle: carboxymethylcellulose (CMC)).

Turning to `O=c1[nH]c(=O)n(C2CC(O)C(CO)O2)cc1Br` (centres undefined), the survivor count (dose: 2000.0 mg/kg/injection, vehicle: carboxymethylcellulose (CMC)) was 4 of 6.

As for `O=C(Nc1ccc(C2=NCCN2)cc1)c1cccc(C(=O)Nc2ccc(C3=NCCN3)cc2)c1`, the survivor count (dose: 150.0 mg/kg/injection, vehicle: carboxymethylcellulose (CMC)) was 0 of 6.

Turning to `O=C(Nc1ccc(NC2=NCCN2)cc1)c1ccc(C(=O)Nc2ccc(NC3=NCCN3)cc2)cc1`, the survivor count is, setting by setting: under setting [2], 2 of 6; under setting [3], 6 of 6; under setting [4], 6 of 6. Also, the T/C under setting [5] is 126 % of control.

Regarding `CSCS(=O)C[C@H](CO)NC(=O)/C=C/c1c(C)[nH]c(=O)[nH]c1=O` (some centres undefined), the survivor count was 6 of 6 under setting [4]; 1 of 6 under setting [5]; 0 of 6 (dose: 4.0 mg/kg/injection, vehicle: saline); 0 of 6 (dose: 8.0 mg/kg/injection, vehicle: saline).

Turning to `CCN(CC)c1ccc2cc3ccc(=[N+](CC)CC)cc-3oc2c1`, the survivor count was 6 of 6 (dose: 0.16 mg/kg/injection, vehicle: carboxymethylcellulose (CMC)); 5 of 6 (dose: 1.25 mg/kg/injection, vehicle: carboxymethylcellulose (CMC)); 6 of 6 under setting [6]; 6 of 6 (dose: 5.0 mg/kg/injection, vehicle: carboxymethylcellulose (CMC)); 1 of 6 (dose: 10.0 mg/kg/injection, vehicle: carboxymethylcellulose (CMC)).

`CN(N=O)C(=O)NC(C=O)C(O)C(O)C(O)CO` (centres undefined): the T/C (dose: 25.0 mg/kg/injection, vehicle: saline) was 131 % of control; the T/C (dose: 50.0 mg/kg/injection, vehicle: saline) was 139 % of control; the T/C (dose: 200.0 mg/kg/injection, vehicle: saline) was 126 % of control. Besides, the survivor count (dose: 400.0 mg/kg/injection, vehicle: saline) is reported as 1 of 6.

Turning to `Nc1ncnc2c1ccn2C1OC(CO)C(O)C1O` (centres undefined), the survivor count runs as follows: (dose: 0.63 mg/kg/injection, vehicle: carboxymethylcellulose (CMC)) 6 of 6; under setting [6], 5 of 6.

`N#Cc1cn(C2OC(CO)C(O)C2O)c2ncnc(N)c12` (centres undefined): the survivor count is listed as 4 of 6 under setting [7] and 6 of 6 (dose: 1.0 mg/kg/injection, vehicle: carboxymethylcellulose (CMC)).

For `Cc1cc(N(CCCl)CCCl)ccc1N=Nc1ccccc1C(=O)O`, the survivor count is 6 of 6 under setting [7]; 6 of 6 (dose: 0.23 mg/kg/injection, vehicle: carboxymethylcellulose (CMC)); 6 of 6 (dose: 0.47 mg/kg/injection, vehicle: carboxymethylcellulose (CMC)); 5 of 6 (dose: 1.87 mg/kg/injection, vehicle: carboxymethylcellulose (CMC)); 5 of 6 (dose: 3.75 mg/kg/injection, vehicle: carboxymethylcellulose (CMC)); 3 of 6 and 5 of 6 (dose: 7.5 mg/kg/injection, vehicle: carboxymethylcellulose (CMC)). The survivor count reads like this: (dose: 15.0 mg/kg/injection, vehicle: carboxymethylcellulose (CMC)) 6 of 6; (dose: 30.0 mg/kg/injection, vehicle: carboxymethylcellulose (CMC)) 6 of 6; (dose: 60.0 mg/kg/injection, vehicle: carboxymethylcellulose (CMC)) 5 of 6.

Regarding `C[C@H](N)C(=O)N[C@@H]1[C@H]2C(=C(O)C[C@@H](O)[C@@H]2O)C(=O)O[C@@H]1C`, the T/C runs as follows: (dose: 93.75 mg/kg/injection, vehicle: saline) 138 % of control; (dose: 1500.0 mg/kg/injection, vehicle: saline) 125 % of control.

For the molecule `CN(C)c1ccc(Nc2c3ccccc3nc3ccccc23)cc1`, the survivor count reads like this: under setting [8], 6 of 6; under setting [9], 6 of 6; (dose: 100.0 mg/kg/injection, vehicle: carboxymethylcellulose (CMC)) 5 of 6; (dose: 200.0 mg/kg/injection, vehicle: carboxymethylcellulose (CMC)) 2 of 6.

As for `O=C(Nc1ccc(C2=NCCCN2)cc1)c1ccc(C(=O)Nc2ccc(C3=NCCCN3)cc2)cc1`, under “dose: 0.8 mg/kg/injection, vehicle: water”, the T/C is 130 % of control. Besides, where the note is “dose: 6.3 mg/kg/injection, vehicle: water”, the survivor count is 5 of 6.

Turning to `S=P(N1CCOCC1)(N1CC1)N1CC1`, the survivor count runs as follows: under setting [10], 6 of 6; under setting [9], 6 of 6.

`C=CC(CN1CC1)OC(C)=O` (centres undefined): under “dose: 3.8 mg/kg/injection, vehicle: carboxymethylcellulose (CMC)”, the T/C was 140 % of control.

On to `CSc1ncnc2nc[nH]c12`, for which the survivor count under setting [10] is reported as 6 of 6; the survivor count under setting [8] is given as 6 of 6; the survivor count (dose: 25.0 mg/kg/injection, vehicle: methylcellulose (MC)) is on record as 6 of 6; the survivor count (dose: 100.0 mg/kg/injection, vehicle: methylcellulose (MC)) is listed as 6 of 6; the survivor count under setting [1] was 5 of 6.

For the molecule `C[n+]1c2ccccc2nc2c(N)cc(N)cc21`, the survivor count was 1 of 6 under setting [8] and 0 of 6 under setting [9].

Regarding `COc1cc2c(c(OC)c1OC)-c1ccc(OC)c(=O)cc1[C@@H](NC(C)=O)CC2`, the survivor count runs as follows: (dose: 0.06 mg/kg/injection, vehicle: saline) 2 of 6; (dose: 0.12 mg/kg/injection, vehicle: saline) 0 of 6; under setting [2], 0 of 6; under setting [3], 0 of 6; (dose: 500.0 micrograms/kg/injection, vehicle: saline) 6 of 6.
